Test results from the supplement of paper PMC6411743.
± gives the standard deviation of the averaged measurements. Only a part is listed here, and it is no random draw.

By UniProt entry, the sequences of proteins in these tests, tags left out. Where a name states a change or a piece, a line headed by the entry shows the natural chain unless it says otherwise.
UniProt Q8NF37: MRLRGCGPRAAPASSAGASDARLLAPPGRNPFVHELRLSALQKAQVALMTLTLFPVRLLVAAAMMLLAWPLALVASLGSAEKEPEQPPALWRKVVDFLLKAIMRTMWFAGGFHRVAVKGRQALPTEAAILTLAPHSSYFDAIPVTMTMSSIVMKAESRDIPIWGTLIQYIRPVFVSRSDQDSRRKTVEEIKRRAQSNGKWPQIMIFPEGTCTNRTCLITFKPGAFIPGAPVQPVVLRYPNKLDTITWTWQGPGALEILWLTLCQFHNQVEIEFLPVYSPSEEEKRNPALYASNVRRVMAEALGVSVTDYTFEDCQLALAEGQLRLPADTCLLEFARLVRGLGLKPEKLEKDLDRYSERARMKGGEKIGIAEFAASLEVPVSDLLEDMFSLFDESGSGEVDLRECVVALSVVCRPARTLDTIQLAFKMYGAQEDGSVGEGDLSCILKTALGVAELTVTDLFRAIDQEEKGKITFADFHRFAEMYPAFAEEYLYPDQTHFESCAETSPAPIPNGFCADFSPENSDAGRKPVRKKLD
UniProt Q8N511: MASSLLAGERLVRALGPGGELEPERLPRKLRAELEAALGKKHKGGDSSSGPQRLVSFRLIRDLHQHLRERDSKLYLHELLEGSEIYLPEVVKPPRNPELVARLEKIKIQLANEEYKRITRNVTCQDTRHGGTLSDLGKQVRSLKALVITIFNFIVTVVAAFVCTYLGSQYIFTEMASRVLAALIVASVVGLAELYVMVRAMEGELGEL
UniProt Q8NDV3: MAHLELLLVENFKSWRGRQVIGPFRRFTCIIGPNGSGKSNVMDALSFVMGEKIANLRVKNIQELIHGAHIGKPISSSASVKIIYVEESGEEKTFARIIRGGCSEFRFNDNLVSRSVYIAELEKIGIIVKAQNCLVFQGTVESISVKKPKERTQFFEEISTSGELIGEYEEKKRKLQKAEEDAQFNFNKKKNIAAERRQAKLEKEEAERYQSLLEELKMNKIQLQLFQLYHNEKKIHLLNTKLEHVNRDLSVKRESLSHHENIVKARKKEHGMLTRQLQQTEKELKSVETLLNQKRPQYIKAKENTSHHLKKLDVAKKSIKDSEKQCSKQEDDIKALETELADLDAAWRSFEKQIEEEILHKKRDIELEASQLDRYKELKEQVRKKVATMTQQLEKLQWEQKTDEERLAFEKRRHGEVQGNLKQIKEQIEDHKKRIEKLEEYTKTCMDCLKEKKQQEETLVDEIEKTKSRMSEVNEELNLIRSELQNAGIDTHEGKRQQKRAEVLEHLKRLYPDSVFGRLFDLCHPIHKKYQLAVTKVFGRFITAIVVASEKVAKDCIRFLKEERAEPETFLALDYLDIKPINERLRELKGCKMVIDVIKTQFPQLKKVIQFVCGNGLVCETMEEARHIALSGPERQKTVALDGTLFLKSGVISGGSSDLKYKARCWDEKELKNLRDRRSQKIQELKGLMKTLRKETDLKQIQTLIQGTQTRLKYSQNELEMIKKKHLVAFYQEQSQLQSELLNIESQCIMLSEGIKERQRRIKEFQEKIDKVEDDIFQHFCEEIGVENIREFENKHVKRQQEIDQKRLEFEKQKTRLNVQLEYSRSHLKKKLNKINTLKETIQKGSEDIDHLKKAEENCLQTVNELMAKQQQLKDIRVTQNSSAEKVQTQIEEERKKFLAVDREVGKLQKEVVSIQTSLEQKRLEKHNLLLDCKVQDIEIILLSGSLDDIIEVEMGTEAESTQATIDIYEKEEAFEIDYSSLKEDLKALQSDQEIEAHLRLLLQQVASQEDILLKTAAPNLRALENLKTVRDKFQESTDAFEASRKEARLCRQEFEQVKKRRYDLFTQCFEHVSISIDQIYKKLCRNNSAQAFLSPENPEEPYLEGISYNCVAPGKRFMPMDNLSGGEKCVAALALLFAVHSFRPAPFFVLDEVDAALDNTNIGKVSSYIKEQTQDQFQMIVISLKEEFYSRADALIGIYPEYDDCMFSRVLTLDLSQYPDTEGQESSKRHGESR
UniProt Q8NI60: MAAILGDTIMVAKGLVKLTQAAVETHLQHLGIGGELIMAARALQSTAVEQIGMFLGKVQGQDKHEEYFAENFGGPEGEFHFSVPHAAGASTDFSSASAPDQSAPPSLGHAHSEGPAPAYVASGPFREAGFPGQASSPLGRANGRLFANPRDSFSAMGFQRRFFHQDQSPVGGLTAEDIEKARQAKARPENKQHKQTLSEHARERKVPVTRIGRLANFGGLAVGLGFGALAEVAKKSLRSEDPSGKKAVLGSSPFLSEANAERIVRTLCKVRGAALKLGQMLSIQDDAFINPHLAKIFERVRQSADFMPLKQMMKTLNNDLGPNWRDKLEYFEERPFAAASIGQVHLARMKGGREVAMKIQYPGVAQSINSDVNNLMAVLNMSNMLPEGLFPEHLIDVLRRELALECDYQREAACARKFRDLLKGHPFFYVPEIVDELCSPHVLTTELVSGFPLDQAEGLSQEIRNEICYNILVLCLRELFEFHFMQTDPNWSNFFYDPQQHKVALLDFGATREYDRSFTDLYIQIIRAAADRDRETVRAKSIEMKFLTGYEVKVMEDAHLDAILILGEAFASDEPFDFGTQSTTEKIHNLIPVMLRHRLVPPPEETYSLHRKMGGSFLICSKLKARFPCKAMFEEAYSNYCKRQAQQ
UniProt Q8TB37: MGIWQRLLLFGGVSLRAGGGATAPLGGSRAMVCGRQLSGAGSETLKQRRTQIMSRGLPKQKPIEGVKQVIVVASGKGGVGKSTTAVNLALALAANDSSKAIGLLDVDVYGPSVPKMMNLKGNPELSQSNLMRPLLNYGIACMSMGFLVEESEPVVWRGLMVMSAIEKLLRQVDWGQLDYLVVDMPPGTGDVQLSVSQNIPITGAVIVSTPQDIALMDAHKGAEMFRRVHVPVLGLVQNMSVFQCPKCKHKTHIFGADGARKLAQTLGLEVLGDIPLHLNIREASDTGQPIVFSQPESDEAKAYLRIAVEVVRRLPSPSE
UniProt Q8N357: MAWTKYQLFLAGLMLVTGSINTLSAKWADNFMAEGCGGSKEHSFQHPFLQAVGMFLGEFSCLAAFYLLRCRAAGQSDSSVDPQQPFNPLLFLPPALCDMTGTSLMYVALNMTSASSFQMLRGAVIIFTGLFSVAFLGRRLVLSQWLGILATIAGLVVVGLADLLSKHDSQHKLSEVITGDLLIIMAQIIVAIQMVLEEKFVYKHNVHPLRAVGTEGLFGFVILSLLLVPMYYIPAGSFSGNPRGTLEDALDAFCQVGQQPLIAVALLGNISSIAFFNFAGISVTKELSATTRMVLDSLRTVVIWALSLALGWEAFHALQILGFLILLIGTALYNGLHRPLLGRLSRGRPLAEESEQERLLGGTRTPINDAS
UniProt Q8N9F7: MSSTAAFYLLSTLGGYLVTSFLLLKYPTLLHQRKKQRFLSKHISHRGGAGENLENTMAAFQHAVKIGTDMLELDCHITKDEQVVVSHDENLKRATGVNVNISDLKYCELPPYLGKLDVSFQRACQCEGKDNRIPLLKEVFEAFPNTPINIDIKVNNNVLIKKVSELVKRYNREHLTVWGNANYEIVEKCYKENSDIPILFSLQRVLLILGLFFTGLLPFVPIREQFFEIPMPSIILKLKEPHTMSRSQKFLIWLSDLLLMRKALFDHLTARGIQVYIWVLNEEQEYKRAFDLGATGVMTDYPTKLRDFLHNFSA
UniProt Q8IX12: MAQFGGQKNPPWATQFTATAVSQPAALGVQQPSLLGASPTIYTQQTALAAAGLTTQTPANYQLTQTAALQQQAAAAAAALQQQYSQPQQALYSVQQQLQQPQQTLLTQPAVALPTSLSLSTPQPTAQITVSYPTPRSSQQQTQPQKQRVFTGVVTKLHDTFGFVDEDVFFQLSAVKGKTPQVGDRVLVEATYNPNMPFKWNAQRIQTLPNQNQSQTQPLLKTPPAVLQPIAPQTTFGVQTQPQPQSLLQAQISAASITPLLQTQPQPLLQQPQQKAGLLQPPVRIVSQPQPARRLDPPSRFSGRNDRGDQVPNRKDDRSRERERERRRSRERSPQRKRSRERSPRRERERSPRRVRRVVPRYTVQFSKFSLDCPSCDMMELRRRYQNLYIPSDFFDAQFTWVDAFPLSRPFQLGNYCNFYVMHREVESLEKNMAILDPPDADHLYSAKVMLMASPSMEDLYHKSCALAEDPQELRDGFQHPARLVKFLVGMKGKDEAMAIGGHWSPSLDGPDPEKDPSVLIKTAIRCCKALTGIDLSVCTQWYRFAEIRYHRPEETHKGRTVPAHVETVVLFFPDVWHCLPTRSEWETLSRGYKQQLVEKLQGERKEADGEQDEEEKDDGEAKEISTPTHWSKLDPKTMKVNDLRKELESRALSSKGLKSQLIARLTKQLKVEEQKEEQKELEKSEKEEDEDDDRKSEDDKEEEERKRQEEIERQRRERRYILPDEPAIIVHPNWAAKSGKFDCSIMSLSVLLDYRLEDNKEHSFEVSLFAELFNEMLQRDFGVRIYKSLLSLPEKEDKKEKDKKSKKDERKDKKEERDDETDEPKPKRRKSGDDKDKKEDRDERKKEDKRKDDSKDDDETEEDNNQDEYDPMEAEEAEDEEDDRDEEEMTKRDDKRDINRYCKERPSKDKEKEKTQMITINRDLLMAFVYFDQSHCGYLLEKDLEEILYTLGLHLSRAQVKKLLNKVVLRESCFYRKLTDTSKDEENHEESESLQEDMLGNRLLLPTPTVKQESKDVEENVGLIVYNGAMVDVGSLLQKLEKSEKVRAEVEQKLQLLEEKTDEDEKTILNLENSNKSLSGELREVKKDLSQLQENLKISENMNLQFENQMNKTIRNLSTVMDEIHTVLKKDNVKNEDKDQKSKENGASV
UniProt Q8N0V3: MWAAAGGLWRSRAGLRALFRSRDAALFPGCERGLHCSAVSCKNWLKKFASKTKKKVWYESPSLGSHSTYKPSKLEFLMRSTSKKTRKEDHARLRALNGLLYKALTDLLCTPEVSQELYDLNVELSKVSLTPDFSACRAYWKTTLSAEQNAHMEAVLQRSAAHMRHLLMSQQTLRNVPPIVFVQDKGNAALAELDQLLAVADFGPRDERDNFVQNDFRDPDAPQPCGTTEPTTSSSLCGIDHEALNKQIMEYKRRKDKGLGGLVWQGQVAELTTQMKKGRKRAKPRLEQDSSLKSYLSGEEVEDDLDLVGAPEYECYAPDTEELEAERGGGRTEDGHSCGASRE
UniProt Q8IZ21: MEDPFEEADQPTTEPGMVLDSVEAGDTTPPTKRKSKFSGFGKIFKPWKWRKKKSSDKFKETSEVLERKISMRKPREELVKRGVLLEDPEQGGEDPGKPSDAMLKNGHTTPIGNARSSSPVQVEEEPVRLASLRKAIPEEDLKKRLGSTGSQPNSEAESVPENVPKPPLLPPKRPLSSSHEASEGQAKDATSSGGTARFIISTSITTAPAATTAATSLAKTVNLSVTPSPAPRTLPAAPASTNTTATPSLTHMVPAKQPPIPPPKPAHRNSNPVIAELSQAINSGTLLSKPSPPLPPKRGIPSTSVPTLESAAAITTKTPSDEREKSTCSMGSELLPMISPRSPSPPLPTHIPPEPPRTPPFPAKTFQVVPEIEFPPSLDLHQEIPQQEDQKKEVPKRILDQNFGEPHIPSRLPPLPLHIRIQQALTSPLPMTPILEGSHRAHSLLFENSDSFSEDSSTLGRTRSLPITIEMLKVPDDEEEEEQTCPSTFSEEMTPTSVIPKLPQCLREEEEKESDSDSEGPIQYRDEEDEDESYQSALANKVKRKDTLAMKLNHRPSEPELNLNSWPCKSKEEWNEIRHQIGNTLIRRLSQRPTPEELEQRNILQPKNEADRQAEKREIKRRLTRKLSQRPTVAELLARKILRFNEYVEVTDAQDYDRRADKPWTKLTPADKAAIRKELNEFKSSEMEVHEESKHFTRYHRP
UniProt Q8IXQ3: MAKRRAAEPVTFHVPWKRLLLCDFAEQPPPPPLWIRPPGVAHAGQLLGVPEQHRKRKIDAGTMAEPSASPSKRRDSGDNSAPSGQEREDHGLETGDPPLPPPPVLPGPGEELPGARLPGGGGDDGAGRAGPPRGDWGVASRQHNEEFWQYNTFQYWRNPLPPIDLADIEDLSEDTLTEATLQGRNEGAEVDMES
UniProt Q8IXS8: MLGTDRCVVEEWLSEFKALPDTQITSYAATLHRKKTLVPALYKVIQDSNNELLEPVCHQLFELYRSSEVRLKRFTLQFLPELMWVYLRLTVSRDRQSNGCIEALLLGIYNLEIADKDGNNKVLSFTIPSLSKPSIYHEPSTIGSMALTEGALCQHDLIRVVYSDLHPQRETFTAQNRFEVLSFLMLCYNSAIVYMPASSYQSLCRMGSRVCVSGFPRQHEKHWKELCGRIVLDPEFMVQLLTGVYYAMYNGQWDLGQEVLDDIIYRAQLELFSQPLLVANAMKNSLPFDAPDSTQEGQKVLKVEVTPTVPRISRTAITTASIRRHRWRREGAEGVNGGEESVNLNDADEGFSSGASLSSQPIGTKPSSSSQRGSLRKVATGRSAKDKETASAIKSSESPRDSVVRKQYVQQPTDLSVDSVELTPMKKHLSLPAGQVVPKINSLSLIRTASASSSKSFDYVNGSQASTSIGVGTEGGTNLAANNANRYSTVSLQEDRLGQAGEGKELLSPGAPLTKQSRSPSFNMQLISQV

Compound: Nc1ncnc2c1ncn2[C@@H]1O[C@H](COP(=O)(O)OP(=O)(O)OP(=O)(O)O)[C@@H](O)[C@H]1O [adenosine triphosphate]
Assay: NP40-soluble protein abundance relative to vehicle (solubility fold change) (ratio); higher = more soluble protein in presence of ATP
Procedure, shortened: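 Across three independent experiments, values are fold changes against the detergent-processed vehicle for each replicate, based on vsn-normalised intensities. The samples were Jurkat crude lysate treated with eight concentrations (0.1 to 10 mM) for 10 min at room temperature and then 3 min at 37 °C. Lysate was solubilised with 0.8% NP40 and benzonase, ultracentrifuged, and the supernatant analysed by TMT-labelled LC-MS/MS.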

Target	NP40-soluble protein abundance (concentration: 1mM)	NP40-soluble protein abundance (concentration: 2mM)	NP40-soluble protein abundance (concentration: 4mM)	NP40-soluble protein abundance (concentration: 6mM)	NP40-soluble protein abundance (concentration: 8mM)	NP40-soluble protein abundance (concentration: 10mM)
SPATA5 (UniProt Q8NB90)	1.42 ± 0.051	1.47 ± 0.06	1.51 ± 0.045	1.49 ± 0.075	1.56 ± 0.09	1.56 ± 0.13
LPCAT1 (UniProt Q8NF37)	1.03 ± 0.072	1.04 ± 0.058	1.01 ± 0.017	1.01 ± 0.047	1.03 ± 0.05	1.04 ± 0.036
UniProt Q8IXI2-2|Q8IXI2-3	0.952 ± 0.014	0.99 ± 0.06	0.981 ± 0.016	0.931 ± 0.027	1 ± 0.056	0.998 ± 0.074
UniProt Q8N573 and related entries	0.985 ± 0.02	1 ± 0.028	0.979 ± 0.047	0.988 ± 0.076	0.939 ± 0.038	0.974 ± 0.018
ZCCHC9 (UniProt Q8N567)	1.16 ± 0.029	1.25 ± 0.082	1.33 ± 0.025	1.43 ± 0.051	1.38 ± 0.08	1.37 ± 0.069
UniProt Q8N4J0	1.03 ± 0.098	0.987 ± 0.071	0.972 ± 0.093	0.944 ± 0.096	0.994 ± 0.1	0.984 ± 0.041
RBM12B (UniProt Q8IXT5)	1.09 ± 0.055	1.13 ± 0.092	1.19 ± 0.12	1.23 ± 0.1	1.28 ± 0.18	1.4 ± 0.11
TMEM199 (UniProt Q8N511)	0.85 ± 0.064	0.881 ± 0.03	0.939 ± 0.042	0.894 ± 0.044	0.904 ± 0.023	0.946 ± 0.036
UniProt Q8NDV3 and related entries	0.941 ± 0.046	0.898 ± 0.046	0.858 ± 0.043	0.928 ± 0.058	0.872 ± 0.078	0.852 ± 0.034
UniProt Q8NI60 and related entries	0.979 ± 0.089	1.02 ± 0.084	1.02 ± 0.077	0.946 ± 0.06	0.993 ± 0.026	1.03 ± 0.085
NUBPL (UniProt Q8TB37)	1.08 ± 0.017	1.06 ± 0.012	1.11 ± 0.051	1.09 ± 0.062	1.09 ± 0.11	0.9908 ± 0.0055
UniProt Q8N357	1.02 ± 0.052	1.04 ± 0.077	1.03 ± 0.024	1.06 ± 0.083	1.01 ± 0.15	1.03 ± 0.17
GDPD1 (UniProt Q8N9F7)	1 ± 0.019	1.04 ± 0.058	1.03 ± 0.058	0.96 ± 0.16	1.02 ± 0.12	0.93 ± 0.027
DDHD1 (UniProt Q8NEL9)	1.01 ± 0.027	1.036 ± 0.0039	1.05 ± 0.016	0.984 ± 0.037	1.04 ± 0.027	1.04 ± 0.016
CCDC117 (UniProt Q8IWD4)	0.961 ± 0.037	0.952 ± 0.034	0.936 ± 0.04	0.965 ± 0.021	0.9239 ± 0.0055	0.908 ± 0.029
SYTL1 (UniProt Q8IYJ3)	1 ± 0.069	1.02 ± 0.05	1.03 ± 0.077	1.03 ± 0.037	1.01 ± 0.053	1.02 ± 0.064
UniProt Q8NHU6 and related entries	1.04 ± 0.039	1.02 ± 0.033	1.03 ± 0.027	1.02 ± 0.058	0.99 ± 0.018	0.996 ± 0.032
KLHL36 (UniProt Q8N4N3)	0.981 ± 0.034	0.9675 ± 0.0046	0.963 ± 0.077	0.954 ± 0.017	0.987 ± 0.062	0.941 ± 0.035
CNNM3 (UniProt Q8NE01)	1.01 ± 0.095	0.986 ± 0.11	1 ± 0.1	0.942 ± 0.1	1.01 ± 0.06	0.979 ± 0.087
UniProt Q8IX12 and related entries	0.982 ± 0.05	0.978 ± 0.048	1.05 ± 0.062	1.11 ± 0.054	1.15 ± 0.044	1.18 ± 0.05
UniProt Q8N0V3	0.938 ± 0.094	1.03 ± 0.014	1.05 ± 0.086	0.983 ± 0.0019	0.924 ± 0.052	1.05 ± 0.04
ZNF740 (UniProt Q8NDX6)	1.05 ± 0.026	0.977 ± 0.014	1.06 ± 0.012	1.05 ± 0.036	1.11 ± 0.05	1.14 ± 0.086
UniProt Q8N2K0 and related entries	1.06 ± 0.026	1.04 ± 0.037	1.1 ± 0.03	1.03 ± 0.035	1.1 ± 0.028	1.07 ± 0.052
NUP37 (UniProt Q8NFH4)	1 ± 0.064	1.02 ± 0.048	0.996 ± 0.061	0.935 ± 0.096	1.02 ± 0.031	1.01 ± 0.039
UniProt Q8IZ21 and related entries	0.904 ± 0.021	0.948 ± 0.021	0.951 ± 0.036	0.976 ± 0.029	0.905 ± 0.041	0.908 ± 0.076
DCP1B (UniProt Q8IZD4)	0.97 ± 0.07	0.974 ± 0.065	0.988 ± 0.051	0.989 ± 0.049	0.957 ± 0.027	0.969 ± 0.042
C9orf40 (UniProt Q8IXQ3)	0.99 ± 0.11	0.951 ± 0.11	0.836 ± 0.055	0.848 ± 0.14	0.813 ± 0.032	0.817 ± 0.081
FAM126B (UniProt Q8IXS8)	0.973 ± 0.04	0.925 ± 0.046	0.942 ± 0.045	1.02 ± 0.069	0.9553 ± 0.0077	0.976 ± 0.034
GSTCD (UniProt Q8NEC7)	1 ± 0.056	0.995 ± 0.077	1.1 ± 0.1	0.972 ± 0.075	0.995 ± 0.048	0.978 ± 0.015
UniProt Q8NBL1	0.979 ± 0.04	1 ± 0.061	0.968 ± 0.045	0.981 ± 0.041	0.954 ± 0.073	0.986 ± 0.07

Full records, quoted from the list. Values in the order: NP40-soluble protein abundance (concentration: 1mM)	NP40-soluble protein abundance (concentration: 2mM)	NP40-soluble protein abundance (concentration: 4mM)	NP40-soluble protein abundance (concentration: 6mM)	NP40-soluble protein abundance (concentration: 8mM)	NP40-soluble protein abundance (concentration: 10mM)
UniProt Q8IX12 and related entries as listed: 0.982 ± 0.05	0.978 ± 0.048	1.05 ± 0.062	1.11 ± 0.054	1.15 ± 0.044	1.18 ± 0.05
TMEM199 (UniProt Q8N511) as listed: 0.85 ± 0.064	0.881 ± 0.03	0.939 ± 0.042	0.894 ± 0.044	0.904 ± 0.023	0.946 ± 0.036
